Results as given in article PMC11063907.
Results are given in words; binding and its absence hold for the method and conditions named. Binding seen in cells or lysates may run through a third protein. Some binding calls cover weakened binding; strength is not graded here. Tags and fused reporters may be left off the sequences shown.

Tests used:
[1] = target: T1, malin-myc (mouse malin with a C-terminal 2x c-myc tag, expressed from the endogenous gene) (mouse) (UniProt Q8BR37); experiment: co-IP; anti-c-myc antibody with Protein-G Agarose on the low-speed supernatant of brain of 4-month-old malin-myc mice (WT mice as control); blotted for c-myc, GYS1 and laforin
T1 sequence: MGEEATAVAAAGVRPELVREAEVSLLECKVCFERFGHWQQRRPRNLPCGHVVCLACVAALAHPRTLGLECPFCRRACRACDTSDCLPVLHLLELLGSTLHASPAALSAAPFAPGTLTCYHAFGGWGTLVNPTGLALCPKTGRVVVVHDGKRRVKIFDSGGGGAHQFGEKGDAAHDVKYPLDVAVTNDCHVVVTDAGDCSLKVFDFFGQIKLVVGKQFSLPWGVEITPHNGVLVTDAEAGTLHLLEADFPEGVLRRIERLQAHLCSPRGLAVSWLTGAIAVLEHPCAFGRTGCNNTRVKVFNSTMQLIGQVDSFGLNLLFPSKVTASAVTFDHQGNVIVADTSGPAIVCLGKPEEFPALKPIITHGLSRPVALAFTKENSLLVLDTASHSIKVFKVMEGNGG

[2] = target: T1, malin-myc (mouse malin with a C-terminal 2x c-myc tag, expressed from the endogenous gene) (mouse); experiment: co-IP; anti-c-myc antibody with Protein-G Agarose, or anti-c-myc antibody linked to agarose, on the low-speed supernatant of skeletal muscle of 4-month-old malin-myc mice (WT mice as control), 18-20 h at 4 °C; blotted for c-myc, GYS1 and laforin; also with 0.1 mg/ml α-amylase during the IP, and with 0.1 mg/ml amyloglucosidase on the beads for 2.5 h at 37 °C

- binding [1]: binds
- binding [2]: binds
B1: laforin (enzyme, UniProt Q9WUA5 1-330)
chain: MLFRFGVVVPPAVAGARQELLLAGSRPELGRWEPHGAVRLRPAGTAAGAAALALQEPGLWLAEVELEAYEEAGGAEPGRVDTFWYKFLQREPGGELHWEGNGPHHDRCCTYNEDNLVDGVYCLPVGHWIEATGHTNEMKHTTDFYFNIAGHQAMHYSRILPNIWLGSCPRQLEHVTIKLKHELGVTAVMNFQTEWDIIQNSSGCNRYPEPMTPDTMMKLYKEEGLSYIWMPTPDMSTEGRVQMLPQAVCLLHALLENGHTVYVHCNAGVGRSTAAVCGWLHYVIGWNLRKVQYFIMAKRPAVYIDEDALAQAQQDFSQKFGKVHSSICAL
